PubChem BioAssay AID1671195 – Yale University | 2021
Here is an unselected part of about 22,000 reagents tested. About 1,510 of all reagents (6.9%) were called active. 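Active includes knockdowns raising or lowering LDL uptake; positive z-scores mean more uptake, negative mean less.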

- Test: 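Genes whose knockdown alters LDL uptake in liver cancer cells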 (primary screen)
- Cells: human Huh7 hepatoma cells
- Knock-down reagent: siRNA pool against human genes, 18 nM
- Timing: about 2 to 2.5 days of knockdown, then 8 h LDL uptake
- Treatment: DiI-labelled LDL at 30 µg/ml for 8 h, in lipoprotein-deficient serum medium
- Measurement: 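Fluorescent LDL signal imaged in cells, scaled to the plate median, robust z-score for each replicate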
- Reading the numbers: robust z-score: higher = more LDL uptake after knockdown
- Hit rule: 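Active when two or more replicates show a robust z-score above 2 or below -2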

no.	gene symbol	robust z-score, replicate 1	robust z-score, replicate 2	robust z-score, replicate 3	activity call
1	IGHV4OR15-8 (GeneID 28317)	6.07	5.3	4.72	active
2	DDB2 (GeneID 1643)	-0.399	-1.68	-0.856	inactive
3	LINC01567 (GeneID 400511)	-0.159	0.00754	-0.342	inactive
4	CHPF (GeneID 79586)	-2.47	-2.68	-2.83	active
5	ARL11 (GeneID 115761)	0.689	-0.42	0.227	inactive
6	ATP6V0E1 (GeneID 8992)	0.982	0.495	0.888	inactive
7	RNF215 (GeneID 200312)	1.07	1.76	0.878	inactive
8	SLC12A3 (GeneID 6559)	-0.867	0.303	-0.539	inactive
9	DDX60 (GeneID 55601)	-1.86	-0.67	-1.71	inactive
10	LOC389710 (retired record) (GeneID 389710)	-0.339	-0.256	-0.106	inactive
11	CREB3L1 (GeneID 90993)	-0.48	-0.732	0.0734	inactive
12	ASGR1 (GeneID 432)	-0.0848	0.143	-0.0313	inactive
13	DUSP10 (GeneID 11221)	-0.177	-0.127	-0.347	inactive
14	MYOZ3 (GeneID 91977)	-0.679	-0.932	-0.126	inactive
15	LOC441777 (retired record) (GeneID 441777)	0.79	1.32	0.941	inactive
16	FGGY (GeneID 55277)	-0.517	-0.26	-1.05	inactive
17	NPM1P39 (GeneID 440577)	0.59	0.359	0.297	inactive
18	ARHGEF3 (GeneID 50650)	1.34	1.57	1.37	inactive
19	REM1 (GeneID 28954)	-0.415	1.46	0.374	inactive
20	OR2F2 (GeneID 135948)	1.01	1.11	2.37	inactive
21	TRIM27 (GeneID 5987)	1.01	-0.304	1.07	inactive
22	ARHGAP12 (GeneID 94134)	0.178	0.634	0.606	inactive
23	FAM186A (GeneID 121006)	0.526	-0.0286	-0.992	inactive
24	TMEM64 (GeneID 169200)	0.506	0.434	0.615	inactive
25	APOBEC2 (GeneID 10930)	-2.15	-2.42	-2.21	active
26	SLC22A13 (GeneID 9390)	-0.643	-0.43	-0.105	inactive
27	PCBP1-AS1 (GeneID 400960)	-0.108	-0.483	-0.058	inactive
28	PGGHG (GeneID 80162)	-0.857	-0.77	-1.06	inactive

A portion of the results above, as a working copy:
no.	gene symbol	robust z-score, replicate 1	robust z-score, replicate 2	robust z-score, replicate 3	activity call
2	DDB2 (GeneID 1643)	-0.399	-1.68	-0.856	inactive
3	LINC01567 (GeneID 400511)	-0.159	0.00754	-0.342	inactive
